Test results: PubChem BioAssay AID2685 (National Center for Advancing Translational Sciences (NCATS), 2010)
Some of the results follow. The main result of the screen is listed elsewhere. These columns were measured beside it and carry no call. Most of these compounds were active or inconclusive in the main read-out, so they are no random draw. Words in brackets tell the shape of the fitted curve; partial curves, single points and poor fits give uncertain potencies.

Assay: qHTS Assay for Lipid Storage Modulators in Drosophila S3 Cells;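 for cell number change: cells counted by Cell Tracker Red CMTPX staining in the red channel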
Conditions: BODIPY lipid droplet fluorescence, 18-24 h; for cell number change: measured here: cell count max response, cells fed with added oleic acid
In short: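 Drosophila S3 cells got compounds at several concentrations plus oleic acid (400 uM solution). Laser-scanning cytometry with 488 nm excitation read lipid droplets at 500-530 nm and cells at 575-640 nm. Percent activity was relative to 20 uM Triacsin C.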

[1] = measured here: cell number channel AC50, cells fed with added oleic acid
[2] = measured here: lipid fluorescence (Fed channel) AC50, cells fed with added oleic acid

| SMILES | cell number change [%] | AC50 [1] | AC50 [2] |
| --- | --- | --- | --- |
| Cc1ccc(COc2ccc(S(=O)(=O)N3CCCC3)cc2C(N)=O)cc1 | 99.6 | 25.9 µM [rising, single point] | – |
| COc1ccccc1C(=O)OCC#CCSc1nnc(-c2cccc3ccccc23)o1 | 27.3 | – | – |
| N=C1C(c2nc(-c3ccc(Cl)cc3)cs2)=C(O)CN1NC(=O)c1ccc(O)cc1 | – | – | 3.66 µM [rising, partial curve] |
| CCc1ccc(OCc2nnc(SCC(=O)NC3CCCCC3)o2)cc1 | -7.62 | – | – |
| O=C(Nc1cccc(F)c1)C1CCCN(S(=O)(=O)c2cnc[nH]2)C1 (centres undefined) | 3.83 | – | 0.116 µM [falling, full curve, poor fit] |
| COc1ccc(C(=O)OCCCN(C)C)cc1OC | 6.58 | – | – |
| COc1ccc2nc(C)c(C(=O)NN)cc2c1 | 33.5 | – | – |
| Cc1ccc(C(=O)Nn2cnc3scc(-c4cccs4)c3c2=O)c(O)c1 | -11.5 | 0.92 µM [falling, full curve, poor fit] | – |
| CCC(C)(C)NC(=O)c1ccc2c(c1)S(=O)(=O)c1ccccc1C2=O | -16.6 | – | 0.82 µM [falling, full curve, poor fit] |
| COCCn1c(SCC(=O)Nc2ccc(Cl)cn2)nc2ccccc21 | – | 1.64 µM [rising, partial curve] | 2.06 µM [rising, partial curve] |
| CC(OC(=O)/C=C/c1cccs1)C(=O)NC1CCCCC1C (centres undefined) | 19.1 | – | – |
| COCCCn1c(=O)c2ccccc2n(CC(=O)N2CCCc3ccccc32)c1=O | 1.28 | – | – |
| C=CCOc1ccccc1CNc1ccccc1C | 78.7 | 29.1 µM [rising, single point] | 20.6 µM [rising, single point] |
| CCCN(CC(=O)Nc1ccccc1C)C(=O)COC(=O)CSc1ccc([N+](=O)[O-])cc1 | 34.5 | 0.651 µM [rising, partial curve] | – |
| CCc1ccc(/C=C2\SC(=S)N(CCC(=O)N3CCN(C)CC3)C2=O)cc1 | 36 | 7.31 µM [rising, partial curve] | 4.61 µM [rising, full curve] |
| CCOc1ccc(NC(=O)CC2C(=O)N(C)C(=S)N2Cc2ccc3c(c2)OCO3)cc1 (centres undefined) | -29 | – | 32.6 µM [falling, single point] |
| OCCN(Cc1ccccc1)CC(O)COc1ccc2c(c1)OCO2 (centres undefined) | 40.5 | 23.1 µM [rising, single point] | – |
| CCN(CC)S(=O)(=O)c1cccc(C(=O)N[C@H](C(=O)NCc2ccccc2F)C(C)C)c1 | 38.6 | 7.31 µM [rising, partial curve] | – |
| O=C(O)CCCC(=O)N1CCc2cc(S(=O)(=O)N3CCc4ccccc43)ccc21 | – | – | 1.84 µM [rising, full curve, poor fit] |
| C=CCOc1c(Cl)cc(CNc2ccc(C)c(Cl)c2)cc1OC | -19.2 | – | – |

| SMILES | cell number change [%] | AC50 [1] | AC50 [2] |
| --- | --- | --- | --- |
| COc1ccc(C=O)cc1COc1ccc(C)cc1[N+](=O)[O-] | – | 6.51 µM [rising, single point] | 8.2 µM [rising, single point] |
| COc1ccccc1NC(=O)c1cnc(SCC(=O)NCC2CCCO2)n(C)c1=O (centres undefined) | 80.5 | 13 µM [rising, partial curve] | – |
| COc1ccc(N2CCN(C(=O)c3ccc(C)cc3)CC2)c([N+](=O)[O-])c1 | 23 | – | 29.1 µM [rising, partial curve, poor fit] |
| COc1ccccc1C(=O)NNC1=NS(=O)(=O)c2ccccc21 | -8.03 | – | – |
| CCCc1cc(-c2n[nH]c(=S)n2-c2cccc(C)c2)cs1 | 20 | – | 32.6 µM [falling, partial curve, poor fit] |
| N#Cc1c2n(c3c(-c4ccccc4)ncnc13)CCC2 | 2.74 | – | – |
| COc1ccc(-c2cn3cc(C)ccc3n2)cc1OC | 104 | 4.61 µM [falling, single point] | – |
| Oc1ccccc1-c1cc(C(F)(F)F)nc(-c2ccccc2)n1 | 7.96 | – | 32.6 µM [rising, single point] |
| Cc1cccc(N/C=C(\[N+](=O)[O-])S(=O)(=O)c2ccccc2)c1 | 60.7 | – | – |
| CSc1nsc(SC)c1NC(=O)OCC1CCCO1 (centres undefined) | 192 | 14.6 µM [rising, partial curve] | 20.6 µM [rising, partial curve] |
| CC(C)n1cc(-c2nc(C(=O)NN)cs2)c(=O)n(Cc2ccccc2)c1=O | -1.19 | – | 0.517 µM [rising, full curve, poor fit] |
| COC(=O)c1cc(=O)c2ccc(OC)cc2o1 | 1.24 | 7.31 µM [falling, partial curve, poor fit] | 0.0259 µM [falling, full curve, poor fit] |
| O=C(CC(Sc1ccccc1)c1cccs1)c1ccco1 (centres undefined) | -22.9 | – | 32.6 µM [falling, partial curve, poor fit] |
| O=C(COC(=O)c1ccccc1O)Nc1cc(S(=O)(=O)N2CCCCCC2)ccc1Cl | -25 | – | – |
| COc1ccc(/C=N/NC(=O)c2c(-c3ccccc3)noc2C)cc1 | 0.689 | 8.2 µM [rising, single point] | 8.2 µM [rising, partial curve, poor fit] |
| N#CCCN(Cc1cccnc1)C(=S)Nc1ccc(OC(F)F)cc1 | -32 | – | 5.17 µM [falling, partial curve] |
| COc1cc(CNCc2ccccc2)c(Br)cc1OC1CCCC1 | -48.9 | 15.8 µM [falling, single point] | 14.1 µM [falling, single point] |
| O=c1[nH]c2c(c3c1CCCC3)CCCC2 | 2.18 | 0.517 µM [falling, full curve, poor fit] | – |
| CC1(C)Cc2c(c(N3CCCC3)nc3sc(C(=O)Nc4ccccc4)c(N)c23)CO1 | -7.08 | – | 6.51 µM [rising, single point] |
| COc1ccc([C@H]2CC(=O)C=C(c3cccc4c3sc3ccccc34)C2)cc1OC | -27.6 | – | – |

Quoted from the results shown for reference:

| SMILES | cell number change [%] | AC50 [1] | AC50 [2] |
| --- | --- | --- | --- |
| CCN(CC)S(=O)(=O)c1cccc(C(=O)N[C@H](C(=O)NCc2ccccc2F)C(C)C)c1 | 38.6 | 7.31 µM [rising, partial curve] | – |
| O=C(O)CCCC(=O)N1CCc2cc(S(=O)(=O)N3CCc4ccccc43)ccc21 | – | – | 1.84 µM [rising, full curve, poor fit] |
| C=CCOc1c(Cl)cc(CNc2ccc(C)c(Cl)c2)cc1OC | -19.2 | – | – |
| COc1ccc(C=O)cc1COc1ccc(C)cc1[N+](=O)[O-] | – | 6.51 µM [rising, single point] | 8.2 µM [rising, single point] |
| COc1ccccc1NC(=O)c1cnc(SCC(=O)NCC2CCCO2)n(C)c1=O (centres undefined) | 80.5 | 13 µM [rising, partial curve] | – |
| COc1ccc(N2CCN(C(=O)c3ccc(C)cc3)CC2)c([N+](=O)[O-])c1 | 23 | – | 29.1 µM [rising, partial curve, poor fit] |
| COc1ccccc1C(=O)NNC1=NS(=O)(=O)c2ccccc21 | -8.03 | – | – |
| CCCc1cc(-c2n[nH]c(=S)n2-c2cccc(C)c2)cs1 | 20 | – | 32.6 µM [falling, partial curve, poor fit] |
| N#Cc1c2n(c3c(-c4ccccc4)ncnc13)CCC2 | 2.74 | – | – |
| COc1ccc(-c2cn3cc(C)ccc3n2)cc1OC | 104 | 4.61 µM [falling, single point] | – |
| Oc1ccccc1-c1cc(C(F)(F)F)nc(-c2ccccc2)n1 | 7.96 | – | 32.6 µM [rising, single point] |
| Cc1cccc(N/C=C(\[N+](=O)[O-])S(=O)(=O)c2ccccc2)c1 | 60.7 | – | – |
| CSc1nsc(SC)c1NC(=O)OCC1CCCO1 (centres undefined) | 192 | 14.6 µM [rising, partial curve] | 20.6 µM [rising, partial curve] |
| CC(C)n1cc(-c2nc(C(=O)NN)cs2)c(=O)n(Cc2ccccc2)c1=O | -1.19 | – | 0.517 µM [rising, full curve, poor fit] |
| COC(=O)c1cc(=O)c2ccc(OC)cc2o1 | 1.24 | 7.31 µM [falling, partial curve, poor fit] | 0.0259 µM [falling, full curve, poor fit] |
| O=C(CC(Sc1ccccc1)c1cccs1)c1ccco1 (centres undefined) | -22.9 | – | 32.6 µM [falling, partial curve, poor fit] |
| O=C(COC(=O)c1ccccc1O)Nc1cc(S(=O)(=O)N2CCCCCC2)ccc1Cl | -25 | – | – |
| COc1ccc(/C=N/NC(=O)c2c(-c3ccccc3)noc2C)cc1 | 0.689 | 8.2 µM [rising, single point] | 8.2 µM [rising, partial curve, poor fit] |

(cont.)

| SMILES | cell number change [%] | AC50 [1] | AC50 [2] |
| --- | --- | --- | --- |
| C=CCn1c(SCc2ccc(Cl)cc2)nc2cc(C(=O)N3CCC(C(N)=O)CC3)ccc2c1=O | 46.7 | 10.3 µM [rising, single point] | 20.6 µM [rising, partial curve] |
| CC(NC(=O)C1CCC(=O)N1Cc1ccc(F)cc1)c1ccc2c(c1)OCCO2 (centres undefined) | -1.01 | – | 2.91 µM [rising, single point] |
| COCCNc1ccc([N+](=O)[O-])cc1C(=O)Nc1cccc(C)n1 | -12.3 | – | – |
| CCOC(=O)c1sc2nc(SCC#N)n(CC3CCCO3)c(=O)c2c1C (centres undefined) | – | 6.51 µM [rising, partial curve, poor fit] | 6.51 µM [rising, single point] |
| C/C(=C\C(=O)c1ccc(C)o1)Nc1ccc(C(=O)O)cc1C | -5.08 | 2.31 µM [falling, partial curve] | 11.6 µM [falling, partial curve] |
| CC(=O)N1CCc2c(sc(NC(=O)CS(=O)(=O)c3ccc(F)cc3)c2C#N)C1 | 21.5 | – | – |
| COc1cc(CCCN2C(=S)NC[C@@H]2c2ccccc2)cc(OC)c1OC | 11.8 | – | 9.2 µM [rising, single point] |
| COc1ccccc1NC(=O)c1ccc(-c2ccccc2F)o1 | 1.26 | – | 9.2 µM [rising, partial curve] |
| COc1ccc(C2C(C(=O)c3ccc(C)o3)=C(O)C(=O)N2Cc2cccnc2)cc1OC (centres undefined) | – | – | 0.103 µM [falling, full curve, poor fit] |
| O=C(COC(=O)c1ccc(Cl)c([N+](=O)[O-])c1)Nc1ccccc1OC(F)F | -50 | 29.1 µM [falling, partial curve, poor fit] | – |
| COc1ccc(C)cc1NC(=O)CSc1ccc(-c2ccco2)nn1 | -11.3 | 0.103 µM [rising, full curve, poor fit] | – |
| Cc1c(Br)c([N+](=O)[O-])nn1CC(=O)NCc1ccccc1 | 2.37 | 0.184 µM [rising, full curve, poor fit] | 0.13 µM [rising, full curve, poor fit] |
| CCn1nc(C(=O)Nc2nc3ccccc3[nH]2)c2ccccc2c1=O | 16.4 | – | 0.58 µM [rising, partial curve, poor fit] |
| O=C(CSc1nc(=O)n2ccccc2n1)OCc1ccccc1 | – | – | 0.366 µM [falling, partial curve] |
| Cc1ccc2c(c1)NC(=O)C(CC(=O)NCCCN1CCCCC1)O2 (centres undefined) | -7.55 | – | 0.206 µM [falling, full curve] |
| Cc1ccc2[nH]c3c(c2c1)CN(C(=O)CN1CCN(Cc2ccc4c(c2)OCO4)CC1)CC3 | -32.8 | 32.6 µM [falling, single point] | – |
| CC(C)(C)n1nnnc1C(c1ccc(C(F)(F)F)cc1)N(Cc1ccccc1)Cc1ccco1 (centres undefined) | -47.6 | 29.1 µM [falling, single point] | 29.1 µM [falling, single point] |
| Nc1cc2c([N+](=O)[O-])cccc2o1 | 2.08 | 0.517 µM [rising, single point] | – |
| CN(c1ccc(C(=O)Nc2nccs2)cc1)S(=O)(=O)c1ccccc1 | -5.18 | 0.184 µM [rising, full curve, poor fit] | 0.13 µM [rising, full curve, poor fit] |
| O=C(NC(=S)Nc1ccccc1Cl)c1cnn2c(C(F)(F)F)cc(C(F)(F)F)nc12 | -51.9 | 1.3 µM [falling, partial curve] | 1.3 µM [falling, full curve] |
